Among the data in PMC7819943, “Rice protein-binding microarrays: a tool to detect cis-acting elements near promoter regions in rice” are binding signal values, retold here.

The chains behind the UniProt entries cited, without tags or fusion partners.
UniProt Q0JBA9, entry or part of it: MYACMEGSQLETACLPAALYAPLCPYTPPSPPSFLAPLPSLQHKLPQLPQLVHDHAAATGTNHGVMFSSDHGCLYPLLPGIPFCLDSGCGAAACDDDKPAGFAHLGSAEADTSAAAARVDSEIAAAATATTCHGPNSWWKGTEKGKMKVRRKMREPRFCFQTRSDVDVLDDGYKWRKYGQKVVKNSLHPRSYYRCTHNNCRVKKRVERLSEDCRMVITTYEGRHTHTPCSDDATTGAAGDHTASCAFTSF

Some of the results follow.

In this experiment the target is OsWRKY34 (Oryza sativa, UniProt Q0JBA9 1-250). Kind of experiment: protein-binding microarray (RPBM); PBS, 2% BSA, 51.3 ng/ul salmon testes DNA, 50 uM zinc acetate, 200 nM TF, 25 C, 1 h; high values mean tight binding. The conditions noted are these: protein: recombinant; tags: N-terminal polyhistidine and DsRed monomer fusion (pET32a); label: CyDye5-dUTP incorporated in the synthesized complementary strand; 3' TTTTT single-stranded linker to array surface; dsDNA, one strand shown. The essentials:
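Transcription factors were made in E. coli BL21-CodonPlus as N-terminal fusions to a polyhistidine tag and DsRed, then purified on Ni–NTA. After primer extension with Cy5-dUTP and blocking with 2% BSA, a custom Agilent array was exposed for 1 h at 25 °C to 200 nM protein in PBS, 2% BSA, salmon testes DNA and 50 µM zinc acetate. Washed arrays were scanned on an Axon 4000B, and the binding signal is per-feature fluorescence intensity in arbitrary units.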
For “ATCTTCCCTTACAGTGACATCCTTTGTTCTTGCCGTCTCTCGGAGTCACCTAGTGCAG”, the binding signal was 17600 fluorescence intensity (a.u.).

For the sequence “AGTGTGCTTATACTACCTCATTGTATTATGTTTGCTCTTACGGAGTCACCTAGTGCAG”, the binding signal was 10000 fluorescence intensity (a.u.). On to “GTGTGTGTTGCGTGGTGGGGAGGAAGATCTCGAGCGGTTGCGGAGTCACCTAGTGCAG”, for which the binding signal is 9590 fluorescence intensity (a.u.). The figure for “GTCCCGGTCCACGACGCATCCACCCATTTAAACCCCACCTCGGAGTCACCTAGTGCAG” is 9450 fluorescence intensity (a.u.). For the sequence “AGAAGGTGTCGGGGTGGCGGGGTAGACAGGCGCTAGTGCTCGGAGTCACCTAGTGCAG”, the binding signal is 8450 fluorescence intensity (a.u.). “AGGTTGATCTACTCTTGTCCAGTCATTTCTGCAGTTTGCCCGGAGTCACCTAGTGCAG”: the binding signal was 8400 fluorescence intensity (a.u.). To “CAGGGGTGTGTTTGAGTAGAAGGAGATCGGGGAGATTGGACGGAGTCACCTAGTGCAG” belongs 9230 fluorescence intensity (a.u.); to “CGCTTCTCTCTCTCTCTCTCTCCTCGCGCCGCCGCCGCCACGGAGTCACCTAGTGCAG”, 9010 fluorescence intensity (a.u.). For “CCTACATACTCAAATGGTTGTTCTTGTTTTTTTTTTCTCTCGGAGTCACCTAGTGCAG”, the binding signal was 10800 fluorescence intensity (a.u.). Regarding “TCCATCATTAGCAAATGTTTATCGTAGCATCACATTGTCACGGAGTCACCTAGTGCAG”, the binding signal is 8520 fluorescence intensity (a.u.). Regarding “ACCCTCGCCACCGTCCCCGCCTCCGTCGACAGCAGCCCGCCGGAGTCACCTAGTGCAG”, the binding signal is 12100 fluorescence intensity (a.u.). “ATATTTGCATGGCAAAAATTTCCATATCATTGTTTCTTGTCGGAGTCACCTAGTGCAG”: the binding signal was 8270 fluorescence intensity (a.u.). Turning to “TTTTTCTTTTTCTTTTTATTACTTATTAATTTGGTAATTTCGGAGTCACCTAGTGCAG”, the binding signal is 9180 fluorescence intensity (a.u.). Take “ATGACCTTTCTGTTTTCAAGCTAGCTGCCTGGACCACCGACGGAGTCACCTAGTGCAG”: the binding signal was 9410 fluorescence intensity (a.u.). On to “ACCCCTACCATGCCACTCTCCAGCCATGAATACCTTGGTACGGAGTCACCTAGTGCAG”, for which the binding signal was 8640 fluorescence intensity (a.u.). With “GTTGACTTTTTTTTAAACATGTTTGACCATTCATCTTATTCGGAGTCACCTAGTGCAG”, the binding signal was 11100 fluorescence intensity (a.u.). The figure for “CTATTCGCAGTGAAATTTGTTATTTTCGCTTCTACTTATACGGAGTCACCTAGTGCAG” is 8550 fluorescence intensity (a.u.); for “TATTGAGTGCATATGGAATGGGCCTTGCTGATGTTATTGACGGAGTCACCTAGTGCAG” it is 8570 fluorescence intensity (a.u.); for “TCTATTTTTTTTACTGCCATATACCCGGTCCCACTAACTTCGGAGTCACCTAGTGCAG” it is 10200 fluorescence intensity (a.u.). The figure for “TGTTTGGTTGGGATACATGGGAATTTTGGTAGGATGGGGACGGAGTCACCTAGTGCAG” is 12700 fluorescence intensity (a.u.); for “TATTTTCTTGCTCTATTTTTCTCAATCCTGCATTCAATCCCGGAGTCACCTAGTGCAG” it is 9840 fluorescence intensity (a.u.). To “ACGCGGGTGGGCTGGACGCCGAGCTGGTCGGGGAGGCACTCGGAGTCACCTAGTGCAG” belongs 8670 fluorescence intensity (a.u.).

For the sequence “CCATTCTAGCATTTCATTTTTTTTATCAAATTACTTATATCGGAGTCACCTAGTGCAG”, the binding signal was 9160 fluorescence intensity (a.u.). As for “CATTGCGGTTACTCTTATCTCTCCACGGATCCGCGCTCAGCGGAGTCACCTAGTGCAG”, the binding signal is 8510 fluorescence intensity (a.u.). For the sequence “CTCATGTTGTTTGACGGTTTGACTCTCCTAGTTTATCATCCGGAGTCACCTAGTGCAG”, the binding signal is 9960 fluorescence intensity (a.u.). Regarding “TCACCACTATCATTTAACCGGACTTTACTTTAATTAGATTCGGAGTCACCTAGTGCAG”, the binding signal is 12600 fluorescence intensity (a.u.). Take “CGCTCTGTTTTACGTGTATAAAGGCCATCCATTTGAGTTACGGAGTCACCTAGTGCAG”: the binding signal is 9180 fluorescence intensity (a.u.). Regarding “TATTTTTCCGGATCAAATTGACATATAAGCGCCACGTCAACGGAGTCACCTAGTGCAG”, the binding signal was 8550 fluorescence intensity (a.u.). “TACCGTTCCAGCCCAACATAATATAGGCCCGCTCTTCGGTCGGAGTCACCTAGTGCAG”: the binding signal is 8060 fluorescence intensity (a.u.). Take “CCGACGCTTCATATAGTTGCCTCGTCGGCGTGCACGATCCCGGAGTCACCTAGTGCAG”: the binding signal was 10400 fluorescence intensity (a.u.). To “AACATCGACACGGTCTCTAAAATACAACTTTGACTTCTTTCGGAGTCACCTAGTGCAG” belongs 9920 fluorescence intensity (a.u.); to “CTGGCTTCCACTTTGGTTTCTACAGATCTATCTATATCTCCGGAGTCACCTAGTGCAG”, 10600 fluorescence intensity (a.u.). To “TGCACCTGATATTCCAAGATTTAGTTACTGCACACAATATCGGAGTCACCTAGTGCAG” belongs 8460 fluorescence intensity (a.u.). For the sequence “ACCACCACCACCGTCTCCATCCTTCCGGCCGGCCACAGTCCGGAGTCACCTAGTGCAG”, the binding signal is 9180 fluorescence intensity (a.u.).

With “TGTCATAGGTTTTAATGATGTTTGGTGTTTTCTGCTGGTACGGAGTCACCTAGTGCAG”, the binding signal is 8300 fluorescence intensity (a.u.).

“GCCTAGCGGGAGGGGTGTTTAGTTTTGACCATAAGGTTCCCGGAGTCACCTAGTGCAG”: the binding signal is 10600 fluorescence intensity (a.u.).

Regarding “TCTTTTCTTCCCGGAGATGTTTATGCATTAACAACGTAACCGGAGTCACCTAGTGCAG”, the binding signal was 9520 fluorescence intensity (a.u.). Regarding “ATTATTCCTCTTTTCCCTCCTACTCTGGGCAAATCTATTTCGGAGTCACCTAGTGCAG”, the binding signal is 9220 fluorescence intensity (a.u.). With “ATGTTGTTTCCCGTGGTCGTCCTTTCGCCGTGTTCGGTTGCGGAGTCACCTAGTGCAG”, the binding signal is 11400 fluorescence intensity (a.u.). To “TGCTCCGTCGCCACGCTCGCGCTCCTCTACTCTGTCCGCGCGGAGTCACCTAGTGCAG” belongs 13800 fluorescence intensity (a.u.); to “TAGTATATACATGCTTGAATTGCTTGGTTGCCACATCTTTCGGAGTCACCTAGTGCAG”, 9520 fluorescence intensity (a.u.). “TCCATAGATTCGCATATGCTTCCTTGACATCTCCACAGAACGGAGTCACCTAGTGCAG”: the binding signal was 12600 fluorescence intensity (a.u.).
